Results are given in words; binding and its absence hold for the method and conditions named. Binding seen in cells or lysates may run through a third protein. Some binding calls cover weakened binding; strength is not graded here. Tags and fused reporters may be left off the sequences shown.
Target: T1, Myc-CASP4 C258A (human caspase-4, catalytic cysteine mutant) (human) (UniProt P49662)
T1 sequence: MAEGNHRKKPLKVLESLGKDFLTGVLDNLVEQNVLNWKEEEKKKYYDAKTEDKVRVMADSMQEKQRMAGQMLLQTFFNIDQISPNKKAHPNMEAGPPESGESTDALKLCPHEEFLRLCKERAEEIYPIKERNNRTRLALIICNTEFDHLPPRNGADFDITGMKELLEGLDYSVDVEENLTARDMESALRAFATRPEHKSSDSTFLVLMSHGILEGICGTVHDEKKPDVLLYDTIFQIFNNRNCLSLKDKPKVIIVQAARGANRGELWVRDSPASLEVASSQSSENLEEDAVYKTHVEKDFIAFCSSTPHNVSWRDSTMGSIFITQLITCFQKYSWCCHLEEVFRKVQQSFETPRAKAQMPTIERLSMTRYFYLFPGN
Assay: co-IP; Flag-GSDMD L192D co-immunoprecipitated by Myc-CASP4 C258A in wild-type and GBP^Δ1q22.2 mutant HeLa cells

B1: Flag-GSDMD L192D (human Gasdermin D) (protein, UniProt P57764 1-484)
chain: MGSAFERVVRRVVQELDHGGEFIPVTSLQSSTGFQPYCLVVRKPSSSWFWKPRYKCVNLSIKDILEPDAAEPDVQRGRSFHFYDAMDGQIQGSVELAAPGQAKIAGGAAVSDSSSTSMNVYSLSVDPNTWQTLLHERHLRQPEHKVLQQLRSRGDNVYVVTEVLQTQKEVEVTRTHKREGSGRFSLPGATCDQGEGQGHLSQKKTVTIPSGSTLAFRVAQLVIDSDLDVLLFPDKKQRTFQPPATGHKRSTSEGAWPQLPSGLSMMRCLHNFLTDGVPAEGAFTEDFQGLRAEVETISKELELLDRELCQLLLEGLEGVLRDQLALRALEEALEQGQSLGPVEPLDGPAGAVLECLVLSSGMLVPELAIPVVYLLGALTMLSETQHKLLAEALESQTLLGPLELVGSLLEQSAPWQERSTMSLPPGLLGNSWGEGAPAWVLLDECGLELGEDTPHVCWEPQAQGRMCALYASLALLSGLSQEPH
binding: binds

Source: PMC12091997
